# Assay results taken from the supplement of paper PMC4604168 (melanoma cell lines).
# This is one part of the list. Many values rest on one well or one pass, so single values are uncertain.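 Imaging used 1,536-well plates; nuclei positive for cleaved PARP by antibody were divided by total DNA-stained nuclei to yield the apoptosis fraction. Doses for screening kept most cells viable, and cell lines differ markedly in resting and induced cleaved-PARP levels.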
# Columns and labels:
# Assay in all cases: cleaved PARP positive nuclei fraction relative to DMSO control; melanoma cells; higher = more apoptosis
# Settings in all cases: library dose: low library concentration; 72 h
# 501Mel = test system: 501Mel
# A101D = test system: A101D
# A2058 = test system: A2058
# A375 = test system: A375
# C32 = test system: C32
# CBRC013 = test system: CBRC013 (line from a melanoma biopsy)
# CBRC014 = test system: CBRC014 (line from a melanoma biopsy)
# CBRC016 = test system: CBRC016 (line from a melanoma biopsy)
# CBRC017 = test system: CBRC017 (line from a melanoma biopsy)
Structure (SMILES),cleaved PARP positive nuclei fraction (501Mel) [%],cleaved PARP positive nuclei fraction (A101D) [%],cleaved PARP positive nuclei fraction (A2058) [%],cleaved PARP positive nuclei fraction (A375) [%],cleaved PARP positive nuclei fraction (C32) [%],cleaved PARP positive nuclei fraction (CBRC013) [%],cleaved PARP positive nuclei fraction (CBRC014) [%],cleaved PARP positive nuclei fraction (CBRC016) [%],cleaved PARP positive nuclei fraction (CBRC017) [%]
"Cc1ccc(NC(=O)c2cccc(N(C)C)c2)cc1NC(=O)c1ccc(O)cc1 + O=C(Oc1ccc([N+](=O)[O-])cc1)N1CCC(C(O)(c2ccc3c(c2)OCO3)c2ccc3c(c2)OCO3)CC1 [JZL184] (first compound 2 µM, partner dose 1 µM)",88.5,213,100,122,52.4,110,149,82.7,86.6
"C#Cc1cccc(Nc2ncnc3cc(OCCOC)c(OCCOC)cc23)c1 [erlotinib] + O=C(Oc1ccc([N+](=O)[O-])cc1)N1CCC(C(O)(c2ccc3c(c2)OCO3)c2ccc3c(c2)OCO3)CC1 [JZL184] (first compound 0.8 µM, partner dose 1 µM)",50.6,214,214,94.9,71.4,66.1,107,89.3,89.3
"C[As](C)SC[C@H](NC(=O)CC[C@H](N)C(=O)O)C(=O)NCC(=O)O [Darinaparsin] + N#Cc1c(O)c2c(-c3ccc(-c4ccccc4O)cc3)csc2[nH]c1=O [A769662] (first compound 0.4 µM, partner dose 2 µM)",77.6,157,68,49.9,99.8,74.1,91.7,82.3,78.1
"COc1ccc2c(c1)CCC1C2CCC2(C)C(NCCCCCCN3C(=O)C=CC3=O)CCC12 (stereo not drawn) + O=C(Oc1ccc([N+](=O)[O-])cc1)N1CCC(C(O)(c2ccc3c(c2)OCO3)c2ccc3c(c2)OCO3)CC1 [JZL184] (first compound 0.4 µM, partner dose 1 µM)",122,89.5,37.9,190,72,96.9,112,156,191
"C[As](C)SC[C@H](NC(=O)CC[C@H](N)C(=O)O)C(=O)NCC(=O)O [Darinaparsin] + COC(=O)c1sccc1S(=O)(=O)Nc1ccc(Nc2ccccc2)cc1OC [GSK0660] (first compound 0.4 µM, partner dose 1 µM)",34.8,121,99.5,139,63.5,291,108,82.1,95.6
"OCCn1cc(-c2cnc3nnn(Cc4ccc5ncccc5c4)c3n2)cn1 + O=C(Oc1ccc([N+](=O)[O-])cc1)N1CCC(C(O)(c2ccc3c(c2)OCO3)c2ccc3c(c2)OCO3)CC1 [JZL184] (first compound 1 µM, partner dose 1 µM)",73,109,137,83.2,43.8,151,188,66.7,61.4
"C[As](C)SC[C@H](NC(=O)CC[C@H](N)C(=O)O)C(=O)NCC(=O)O [Darinaparsin] + CCc1ccc(CCOc2ccc(CC3SC(=O)NC3=O)cc2)nc1 [pioglitazone] (first compound 0.4 µM, partner dose 2 µM)",81.7,55.3,37.3,52.6,190,177,111,64.2,145
"Cc1cc(SCc2sc(-c3ccc(C(F)(F)F)c(F)c3)nc2C)ccc1OCC(=O)O + O=C1NC(=O)/C(=C/c2ccc(-c3ccc(F)cc3O)o2)S1 [AS252424] (first compound 2 µM, partner dose 1 µM)",82.6,120,162,135,72,152,102,50.1,271
"COc1cc(Nc2ncc(F)c(Nc3ccc4c(n3)NC(=O)C(C)(C)O4)n2)cc(OC)c1OC [Tamatinib] + O=C(Oc1ccc([N+](=O)[O-])cc1)N1CCC(C(O)(c2ccc3c(c2)OCO3)c2ccc3c(c2)OCO3)CC1 [JZL184] (first compound 0.4 µM, partner dose 1 µM)",160,80.6,135,451,162,155,102,68,76
"CN(C)S(=O)(=O)c1ccc2c(c1)/C(=C/c1cc3c([nH]1)CCCC3)C(=O)N2 + C/C(O)=C(\C#N)C(=O)Nc1cc(Br)ccc1Br [LFM-A13] (first compound 0.4 µM, partner dose 2 µM)",73.9,135,107,80.9,73.5,49.6,127,139,86
"O=S(=O)(c1ccccc1)N(CC(F)(F)F)c1ccc(C(O)(C(F)(F)F)C(F)(F)F)cc1 + O=C(Oc1ccc([N+](=O)[O-])cc1)N1CCC(C(O)(c2ccc3c(c2)OCO3)c2ccc3c(c2)OCO3)CC1 [JZL184] (first compound 1.4 µM, partner dose 1 µM)",264,58.1,81.9,103,93.7,68,117,85.4,81.8
"N#Cc1c(O)c2c(-c3ccc(-c4ccccc4O)cc3)csc2[nH]c1=O + C/C(O)=C(\C#N)C(=O)Nc1cc(Br)ccc1Br [LFM-A13] (first compound 2 µM, partner dose 2 µM)",120,79.4,97.1,118,130,64.6,110,46.7,79.3

# A run of entries from the list above, as a working copy:
Structure (SMILES),cleaved PARP positive nuclei fraction (501Mel) [%],cleaved PARP positive nuclei fraction (A101D) [%],cleaved PARP positive nuclei fraction (A2058) [%],cleaved PARP positive nuclei fraction (A375) [%],cleaved PARP positive nuclei fraction (C32) [%],cleaved PARP positive nuclei fraction (CBRC013) [%],cleaved PARP positive nuclei fraction (CBRC014) [%],cleaved PARP positive nuclei fraction (CBRC016) [%],cleaved PARP positive nuclei fraction (CBRC017) [%]
"COc1cc(Nc2ncc(F)c(Nc3ccc4c(n3)NC(=O)C(C)(C)O4)n2)cc(OC)c1OC [Tamatinib] + O=C(Oc1ccc([N+](=O)[O-])cc1)N1CCC(C(O)(c2ccc3c(c2)OCO3)c2ccc3c(c2)OCO3)CC1 [JZL184] (first compound 0.4 µM, partner dose 1 µM)",160,80.6,135,451,162,155,102,68,76
"CN(C)S(=O)(=O)c1ccc2c(c1)/C(=C/c1cc3c([nH]1)CCCC3)C(=O)N2 + C/C(O)=C(\C#N)C(=O)Nc1cc(Br)ccc1Br [LFM-A13] (first compound 0.4 µM, partner dose 2 µM)",73.9,135,107,80.9,73.5,49.6,127,139,86
